Measurements taken from the supplement of paper PMC3334620.
In all, about 33,000 sequences were measured (“E-score (-0.5 to 0.5)”: median about -0.0059, highest 2% from about 0.26 on). Some of the results follow.

What follows are sequences tested against T1, Cin5 (UniProt P40917) (assay: PBM E-score (8-mer binding enrichment) (E-score (-0.5 to 0.5)); higher = stronger / more preferred TF binding). Details: protein concentration: 100 nM; construct: GST-full length.
T1 sequence: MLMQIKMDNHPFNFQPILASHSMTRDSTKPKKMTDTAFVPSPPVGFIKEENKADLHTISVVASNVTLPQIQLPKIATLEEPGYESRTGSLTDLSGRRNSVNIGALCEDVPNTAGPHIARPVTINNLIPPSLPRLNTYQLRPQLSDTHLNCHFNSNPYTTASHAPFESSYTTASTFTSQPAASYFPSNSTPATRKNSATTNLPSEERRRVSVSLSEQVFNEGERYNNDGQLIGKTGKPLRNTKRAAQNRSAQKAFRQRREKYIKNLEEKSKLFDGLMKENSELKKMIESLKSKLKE
Outline: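 Bound GST-tagged yeast transcription factors, applied at about 100-200 nM to double-stranded universal all-10-mer Agilent arrays, were detected with fluorescent anti-GST. Scans were normalised with masliner. A modified Wilcoxon-Mann-Whitney statistic, the E-score, was assigned to each ungapped eight-base word pooled with its reverse complement by the Universal PBM Analysis Suite.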

Sequence | PBM E-score
CGGATACA | 0.166
AATTGACG | 0.0316
CATGGCCA | -0.2
ACGATTAC | 0.295
GATTAGGC | 0.0587
CCAGAGCA | -0.046
ATTCAAAA | 0.232
CGGTTGTA | -0.0842
TGATGCCA | 0.058
CGGCGAAC | -0.104
CCGCATTA | 0.157
ATACCCTC | 0.0408
CTTTGTGC | -0.0496
TCCACTCA | 0.0681
AGTTATGA | 0.103
ATCGAGTA | 0.12
GTTGAGGA | -0.0638
GTGTGCGA | -0.0825
CGGTCGAC | 0.0342
AAAATAAA | 0.184
CTACTTTC | 0.0621
ATGTTCTC | -0.0863
ATGTCAGC | 0.272
ACGGTTCT | -0.207
AGCCGGGA | -0.0505

Sequence | PBM E-score
CGCGGCGA | 0.119
AACGGACG | -0.0256
AGAGTGAT | 0.104
CTTTAACA | -0.0331
GTTAATTA | 0.215
CCAATAGG | -0.0237
ATGGTCTA | -0.124
CTATTAGA | -0.0827
GAAACGTC | -0.11
TCTGAACA | 0.0705
AAATATCA | 0.179
CCCGATAC | -0.192
GTGCCAAA | -0.0496
AAGTTACC | 0.0276
CCGGCCCA | -0.213
CTACGAAC | 0.0375
ATACAGAT | 0.229
ACTAGTCA | -0.0268
CTCGCATA | 0.12
AAGGGTTG | -0.0186
AAACTGTC | -0.0272
ATCCCCTC | -0.0871
CGTACGAA | 0.00617
AACTGCCT | 0.0765
CTTGTTAA | -0.0283

Sequence | PBM E-score
CCTGCTTA | 0.205
CTGCTGTA | -0.0655
GAGATGTA | 0.154
GAAGAAGA | 0.0189
AAACTGCT | -0.0489
CGGGGTGC | -0.0711
CTACGGTA | -0.0819
AAGCTCCG | 0.00276
AGCGAAGA | -0.106
AAACACAG | 0.101
CCCGTTAC | 0.114
TCGTCAAA | 0.0395
AAACTGAC | -0.14
GATTTTCC | -0.0244
TCGGTCCA | -0.0589
GTACTGTA | -0.114
ATGGCGAC | -0.11
ACTAATAG | 0.277
ACGAACTA | 0.105
CTCTTCAA | -0.224
CAAGTCGG | -0.00643
ACTTTCGG | -0.0738
AACGATTC | 0.103
GTAGGCAC | -0.127
CTACACAG | -0.0209

Sequence | PBM E-score
ACCAATGC | 0.0593
CCATCCGG | -0.107
CGATATAA | 0.144
AGAATTGG | 0.116
CCGGAAAA | 0.0656
AATTTGGA | -0.0245
CAAAGTAA | 0.168
ACCCTTCG | -0.189
ACTTCAAA | -0.116
GATAAAGA | 0.0787
ACAGATTG | 0.104
CACTCATA | 0.15
CGATGCCA | -0.196
AATTGTTG | -0.0185
AAGGGCTC | -0.374
ACCACCTG | -0.0268
GCAGTCAC | -0.109
GTGACTCA | -0.0591
ACGCGCAA | 0.122
CAAACCGC | -0.016
ATGCACAT | 0.0691
ACTTCCAA | 0.0556
ATTTGTCA | 0.164
ATGTAAGA | 0.274
ACACGACG | -0.0075

Not a retest: an excerpt of the list.
Sequence | PBM E-score
AAGCTCCG | 0.00276
AGCGAAGA | -0.106
AAACACAG | 0.101
CCCGTTAC | 0.114

Rewritten as labelled records: entries from further up
ATGCACAT
  PBM E-score = 0.0691
ATTTGTCA
  PBM E-score = 0.164

Later entries:

Sequence | PBM E-score
AATCAAGT | 0.164
AACTATGT | 0.0917
ACTAGAAT | 0.196
ACCAGGGA | -0.145
CCGGGGAG | -0.113
AAAGAAGG | -0.0513
AGCATTTG | 0.0821
ATAATGTC | 0.248
GCGAAAGC | -0.0639
AGTACAGG | 0.0687
CGGCTGGC | -0.191
CCGTAACA | -0.0307
ACTTCCCA | 0.00063
CCTGTAAG | -0.0519
GCATCAAC | 0.0847
AAAATTTA | -0.0287
CGAAAAAG | 0.0943
ACGCCCGA | -0.032
CCTTTAAG | -0.107
ACCGGCGG | -0.15
TATTGAGA | 0.225
CTAGGTGC | -0.145
ACAGAGAA | 0.0544
CGGCCGAC | -0.0403
GTAAGTCA | 0.0491

Exported in markdown: part of the list above.

| Sequence | PBM E-score |
| --- | --- |
| ACTTCCCA | 0.00063 |
| CCTTTAAG | -0.107 |
| ACAGAGAA | 0.0544 |

The listing continues.

Sequence | PBM E-score
ACTGGCGG | 0.0401
GTGGAAGA | -0.192
CGACCGGA | -0.124
CCAGTAAA | 0.135
TCATCCCA | -0.0358
AGTATTCA | 0.165
GACTCTAA | 0.0313
ACCGAGTG | -0.141
TCATAAGA | 0.0448
CGCGGTAC | -0.0212
TACATCCA | 0.0256
AGGCTGCG | -0.0969
CCTGGGCC | -0.283
TAATTTCA | 0.181
ACCAAAAG | -0.00654
GGGGCATA | -0.0532
AATGCAGC | -0.198
CCGGATAG | 0.0797
CAACGTCA | -0.00881
TCCAAAAA | 0.0023
GAGACCGA | -0.118
AGCCTGCC | -0.106
GGCGCCGA | 0.0266
AACGAACA | 0.161
AAGACTTC | -0.221

Sequence | PBM E-score
CCGATACG | -0.205
ACTCCTGG | -0.216
CCGTCAGG | -0.184
GTAATGGA | 0.254
GACCATGC | -0.108
TTAATAAA | 0.287
TGACTCCA | -0.17
GAATTGGA | 0.104
CGTTGCCC | -0.169
CCCCTAAG | -0.119
CACGTAGC | -0.252
CATGAACC | 0.184
ATACAAAC | 0.257
GTACTTAA | -0.0728
CACAGGTC | -0.18
ATAGGCCG | -0.185
CACGTTCG | -0.101
CTAGGAGA | -0.235
AACCGCGT | 0.0958
CGCGTGGA | -0.191
GTTAGGGA | -0.0839
CGTGGCAG | -0.0809
